Assay results published in publication PMC4868951.
These are yes or no findings as the source states them, for the method shown. In cells and extracts the contact can be indirect. A yes stands for co-enrichment or nearness to the bait. Other partners may have been found.

Protein sequences, listed by entry. Tags and fused reporters are not part of them.
UniProt Q02748: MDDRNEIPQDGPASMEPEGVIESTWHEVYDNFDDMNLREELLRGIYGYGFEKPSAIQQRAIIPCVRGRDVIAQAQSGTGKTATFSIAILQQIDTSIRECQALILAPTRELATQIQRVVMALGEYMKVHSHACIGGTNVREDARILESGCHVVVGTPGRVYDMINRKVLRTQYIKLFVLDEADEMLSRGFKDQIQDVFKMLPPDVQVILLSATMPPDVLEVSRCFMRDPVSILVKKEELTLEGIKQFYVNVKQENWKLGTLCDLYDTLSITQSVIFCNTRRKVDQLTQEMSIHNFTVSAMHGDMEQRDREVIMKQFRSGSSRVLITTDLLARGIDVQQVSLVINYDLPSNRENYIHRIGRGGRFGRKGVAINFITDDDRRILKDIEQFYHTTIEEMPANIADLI

Molecular target: eIF4A (immunoprecipitated for mass spectrometry) (Drosophila) (UniProt Q02748)
Assay: affinity purification with mass spectrometry; eIF4A immunoprecipitations in triplicate from cells in medium with (+aa) or without (-aa) amino acids, co-precipitating proteins identified by mass spectrometry

Row | binding | Substance
1 | binds | EF2 (from UniProt P13060 1-844)
2 | binds | RpS3 (from UniProt Q06559 1-246)
